Literature values, collected in patent US20170027865A1, “Dry Pharmaceutical Compositions for Topical Delivery of Oral Medications, Nasal Delivery and to Treat Ear Disorders” (CMPD LICENSING LLC, priority 2013, published 2017).

Tested on: Mycoplasma pneumoniae
Conditions: Gram: n/a

**Q.** For `O=C(O)c1cn(C2CC2)c2cc(N3CCNCC3)c(F)cc2c1=O` [Ciprofloxacin, ciprofloxacin], which Expected coverage is on record?
**A.** Its Expected coverage is “yes”.
